Data on 57 molecules can be found in PubChem BioAssay AID2685 (National Center for Advancing Translational Sciences (NCATS), 2010).

This experiment in a line: qHTS Assay for Lipid Storage Modulators in Drosophila S3 Cells.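 On cell number change: cells counted by Cell Tracker Red CMTPX staining in the red channel.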 Particulars: BODIPY lipid droplet fluorescence, 18-24 h; for cell number change: measured here: cell count max response, cells fed with added oleic acid. In a few lines:
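Laser-scanning cytometry quantifies lipid droplet accumulation (500–530 nm total intensity; droplet/cell object ratio) in oleic acid-fed (400 uM added) Drosophila S3 cells treated with a concentration series. 20 uM Triacsin C defined 100% inhibition.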

[1] abbreviates: measured here: cell number channel AC50, cells fed with added oleic acid.
[2] abbreviates: measured here: lipid fluorescence (Fed channel) AC50, cells fed with added oleic acid.

As a reminder, the AC50 is the midpoint of the concentration-response curve, whichever way the signal moves. A higher AC50 goes with activity only at high concentration.

SMILES strings stand for the structures. The list shows a part of the results. Further columns of the screen follow, without active or inactive calls. Compounds called inactive in the main read-out are mostly missing here. Potencies come from curve fits of mixed quality, noted in brackets.

`CCCn1c(SCC(=O)NC(=O)NC(C)(C)C)n[nH]c1=O`: the cell number change worked out at 32.4%. Further, the AC50 under setting [1] is 16.4 µM [rising, single point].
Turning to `O=C(COC(=O)C1CCC(N2C(=O)C3C4CCC(C4)C3C2=O)CC1)c1ccc(F)cc1` (centres undefined), under setting [2], the AC50 was 16.4 µM [falling, partial curve, poor fit].
`CCCCNC(=O)CCn1c(=O)c2ccccc2n(CC(=O)N2CC(C)CC(C)C2)c1=O` (centres undefined): the cell number change was 24.8%. The half-maximal activity concentration (AC50) under setting [1] was 2.91 µM [rising, single point]. Also, under setting [2], the AC50 was 6.51 µM [rising, single point].
With `O=C(Cc1cccs1)Nc1ccccc1-c1nc2ccccc2[nH]1`, the cell number change was -5.33%. In addition, the AC50 under setting [2] was 29.1 µM [falling, single point].
As for `CCCOc1ccc(/C=C/C(=O)NC2CCCCC2)cc1`, the cell number change was -22.6%. The half-maximal activity concentration (AC50) under setting [2] was 0.206 µM [falling, full curve, poor fit].
Regarding `Cc1ccn2c(NCc3ccc4c(c3)OCO4)c(-c3ccc(O)cc3)nc2c1`, the cell number change was 72.9%. Also, the AC50 under setting [1] is 29.1 µM [rising, single point].
On to `O=C(Nc1cc([N+](=O)[O-])ccc1N1CCCC1)c1ccco1`, for which the AC50 runs as follows: under setting [1], 0.92 µM [rising, partial curve]; under setting [2], 6.51 µM [falling, single point].
As for `C=CCN(C(=O)c1cccc(S(=O)(=O)N2CCN(C)CC2)c1)c1nc(-c2ccccc2)cs1`, the cell number change was -35.5%. Under setting [1], the AC50 was 29.1 µM [falling, single point].
Consider `CCOc1ccc(C(=O)Nc2ccc(NC(=O)c3ccccc3)c(C)c2)cc1[N+](=O)[O-]`, for which the cell number change was -17.9%. Moreover, the AC50 under setting [2] was 0.259 µM [falling, full curve].
For the molecule `O=C(NC1CCCCC1)C(c1ccccc1F)N(Cc1ccco1)C(=O)c1ccccn1` (centres undefined), the cell number change was found to be 13.4%.
On to `CCCn1c(SCC(=O)NC(C)c2ccccc2)n[nH]c1=O` (centres undefined), for which the cell number change was 43.2%. Besides, under setting [1], the AC50 was 29.1 µM [rising, single point]. In addition, under setting [2], the AC50 was 20.6 µM [rising, single point].
For `O=C1CC(=O)C(n2cncn2)C(c2ccc(Cl)cc2)C1` (centres undefined), the cell number change was -70.8%. Further, under setting [1], the AC50 was 23.1 µM [falling, partial curve, poor fit].
Regarding `COc1ccc(CNCC(O)COc2ccc(C(C)(C)c3ccccc3)cc2)cc1` (centres undefined), the cell number change is -64.6%. Also, the AC50 under setting [1] is 14.6 µM [falling, partial curve]. Besides, the AC50 under setting [2] is 16.4 µM [falling, partial curve].
`Cc1ccc(OCC(=O)Nc2ccc(NC(=O)c3cccs3)cc2)c(C)c1`: the cell number change is -25.4%. In addition, under setting [2], the AC50 was 23.1 µM [falling, single point].
For `CC1=CCC2(CO)COC(c3ccccc3O)C1C2` (centres undefined), the cell number change is -2.36%. Further, the AC50 under setting [2] is 0.058 µM [falling, full curve].
In the case of `Cc1cc(NC(=O)Cc2cn3ccsc3n2)n(-c2ccccc2)n1`, the cell number change worked out at 48.7%. Also, the AC50 under setting [1] is 7.31 µM [falling, partial curve, poor fit].
Take `CCOC(=O)C1CCN(S(=O)(=O)c2cnc[nH]2)CC1`: the cell number change was -9.33%. The AC50 under setting [2] was 0.731 µM [falling, single point].
For `Cc1ccc(OCCn2cnc3c(N)ncnc32)cc1`, the cell number change stood at 16.5%. Further, under setting [2], the AC50 was 16.4 µM [rising, partial curve, poor fit].
For `O=C(Nc1ccc(Nc2ccccc2)cc1)c1ccc(Cl)c([N+](=O)[O-])c1`, the cell number change is -38.5%. Further, the AC50 under setting [1] is 20.6 µM [falling, single point].
`COCc1c(C(=O)N/N=C(/C)c2ccccc2)nnn1-c1nonc1N`: the cell number change was determined as 19.4%.
As to `CCOc1cc(N2CCOCC2)c(OCC)cc1NC(=O)Cc1cccc2ccccc12`, the cell number change came out at 18%. Besides, under setting [1], the AC50 was 0.291 µM [rising, partial curve]. Besides, the AC50 under setting [2] is 1.64 µM [rising, partial curve].
Take `CCOc1ccc(Nc2cc(C)c3ccccc3n2)cc1`: the AC50 was 0.651 µM [rising, partial curve] under setting [1] and 6.51 µM [rising, single point] under setting [2].
As for `COc1ccc(CCNC(=O)CC2Nc3ccccc3NC2=O)cc1` (centres undefined), the cell number change worked out at 2.52%.
In the case of `c1ccc(-c2noc(-c3cccnc3)n2)cc1`, the cell number change worked out at 48%. Besides, the AC50 under setting [1] was 29.1 µM [rising, single point].
Regarding `CC(=O)N1c2ccccc2[C@H](C)[C@H]1C`, the cell number change is -27%. Moreover, the AC50 under setting [2] is 29.1 µM [falling, single point].
For the molecule `COC(=O)c1ccc2nc(Nc3nc4c(F)cc(F)cc4s3)sc2c1`, the cell number change was -41.9%. Moreover, the AC50 under setting [1] was 6.51 µM [falling, full curve, poor fit]. Besides, under setting [2], the AC50 was 18.4 µM [rising, single point].
`COc1ccc2c(c1)Cc1sc(NC(=O)c3ccco3)nc1-2`: the cell number change was -7.65%. In addition, under setting [2], the AC50 was 25.9 µM [falling, single point].
Regarding `Cc1ccccc1OCC(=O)NCCN(C)C`, the cell number change was determined as 4.48%. Further, the AC50 under setting [2] is 0.517 µM [falling, single point].
For the molecule `Cc1ccc(C(=O)OCc2c(C)noc2C)cc1NC(=O)c1ccco1`, the cell number change is 28.3%. The AC50 under setting [1] is 0.231 µM [rising, full curve, poor fit]. Also, under setting [2], the AC50 is 0.259 µM [rising, full curve].
For the molecule `Cc1cc(C)c2c(=O)cc(C(=O)NCc3ccccc3)oc2c1`, the cell number change is 13.6%. Also, under setting [2], the AC50 was 23.1 µM [rising, single point].
As to `CC1CCN(c2ccc(NC(=O)C3CCCN3S(=O)(=O)c3ccc(F)cc3)cc2)CC1` (centres undefined), the cell number change is -12.8%. Further, the AC50 under setting [2] is 18.4 µM [falling, single point].
For `COc1cc(C(=O)NC(=S)Nc2cccc(-c3cc4ccccc4oc3=O)c2)cc(OC)c1OC`, the cell number change was -12.1%. Under setting [2], the AC50 is 32.6 µM [falling, partial curve, poor fit].
On to `Nc1c(-c2ccccc2)c(CSc2nc3ccccc3[nH]2)nn1-c1cccc(C(=O)O)c1`, for which the cell number change worked out at 19.7%. In addition, the AC50 under setting [2] was 18.4 µM [falling, partial curve].
With `O=C(COC(=O)c1cccc(S(=O)(=O)N2CCN(c3ccc(F)cc3)CC2)c1)NCC1CCCO1` (centres undefined), the cell number change is -21.9%. Besides, under setting [1], the AC50 is 0.116 µM [falling, full curve, poor fit]. Further, the AC50 under setting [2] was 0.731 µM [falling, full curve].
As to `O=C1CCCCCN1CP(=O)(O)CN1CCOCC1`, the cell number change was -17.6%. Under setting [2], the AC50 is 32.6 µM [falling, single point].
As for `CC(C)c1ccc(NC(=O)NCc2ccc3c(c2)OCO3)cc1`, the cell number change was found to be 11.6%. Moreover, the AC50 under setting [2] was 8.91 µM [rising, partial curve].
For `CCCNC(=O)c1ccc(Cl)cc1Cl`, the cell number change was 26.1%. Besides, under setting [1], the AC50 is 0.0103 µM [rising, full curve, poor fit]. The AC50 under setting [2] is 0.0259 µM [rising, full curve].
For `O=C(/C=C/c1ccccc1)NC(=S)Nc1ccccc1C(=O)NC1CCCCC1`, the cell number change is -7.47%. The AC50 under setting [2] was 20.6 µM [falling, single point].
Consider `CN(c1ccc(C(=O)N2CCOCC2)cc1)S(=O)(=O)c1cccs1`, for which the cell number change stood at 8.7%. Further, the AC50 under setting [2] is 29.1 µM [rising, single point].
Consider `Cc1ccccc1C(=O)O/N=C(\N)c1ccccc1`, for which the cell number change stood at 7.41%. The AC50 under setting [2] is 1.16 µM [rising, full curve, poor fit].
For the molecule `C/C(=N\NC(=O)c1nnn(-c2nonc2N)c1-c1ccccc1)c1ccccc1O`, the cell number change is 126%. Further, under setting [1], the AC50 is 20.6 µM [rising, partial curve]. Further, the AC50 under setting [2] was 4.11 µM [falling, full curve].
As for `CCOc1ccc2nc(-c3ccc(OC)c(OC)c3)cc(C(=O)O)c2c1`, the cell number change was found to be 20.6%. In addition, the AC50 under setting [2] was 29.1 µM [falling, single point].
On to `CCOCC(=O)Nc1cccc(-c2nc3cccnc3s2)c1C`, for which the cell number change came to 7.24%. The AC50 under setting [2] was 4.11 µM [rising, partial curve].
For `CSc1nnc(C)c(=O)n1COC(=O)c1ccc(S(=O)(=O)N(C)C)cc1`, the cell number change was -23.2%. For the same molecule, under setting [2], the half-maximal activity concentration (AC50) was 5.17 µM [falling, full curve, poor fit].
Take `COCc1cccc(C2=CC(=O)C[C@H](c3ccc(OC)cc3)C2)c1`: the cell number change is -6.74%.
On to `Cc1ccc(NC(=S)NCc2ccccc2)cc1S(=O)(=O)N1CCCCC1`, for which the AC50 under setting [2] was 29.1 µM [falling, partial curve].
In the case of `CN(C)S(=O)(=O)c1cccc(C(=O)Nc2ccc(Cl)cn2)c1`, the cell number change is -2.17%. For the same molecule, the AC50 under setting [2] is 18.4 µM [falling, single point].
In the case of `O=C(CSc1n[nH]c(-c2ccco2)n1)Nc1ccc(Br)cc1`, the cell number change was -30.7%. Further, under setting [1], the AC50 is 3.26 µM [falling, full curve, poor fit]. The AC50 under setting [2] was 6.51 µM [falling, single point].
On to `Cn1c2ccccc2c2nnc(SCc3ccc4nonc4c3)nc21`, for which the cell number change was 14.9%. Also, under setting [2], the AC50 is 6.51 µM [rising, single point].
For `O=C(CN1C(=O)CCC1=O)NNc1ccc2ccccc2c1`, the cell number change is -33.5%. Besides, under setting [1], the AC50 is 29.1 µM [falling, single point].
Take `COc1ccc(/C=C2\SC(=O)N(CCNC(=O)C3=COCCO3)C2=O)cc1`: under setting [2], the half-maximal activity concentration (AC50) is 2.91 µM [rising, single point].
On to `Cc1ccc(S(=O)(=O)NCC(C)n2nc(C)cc2C)cc1` (centres undefined), for which the cell number change was 4.78%. Further, the AC50 under setting [2] is 14.6 µM [rising, partial curve].
In the case of `CN1C(=O)/C(=C\c2ccc(N(C)C)cc2)OC1=S`, the cell number change turned out to be 17.3%. In addition, the AC50 under setting [2] is 9.2 µM [falling, partial curve, poor fit].
Consider `COc1ccccc1N(C(=O)c1snc(C(N)=O)c1N)C(C(=O)NCCC(C)C)c1ccco1` (centres undefined), for which the cell number change is 3.09%. For the same molecule, the AC50 under setting [1] was 1.46 µM [rising, partial curve]. In addition, under setting [2], the AC50 was 1.46 µM [rising, partial curve, poor fit].
Regarding `Cc1ccc(S(=O)(=O)N2CCOCC2)cc1NC(=O)COC(=O)CNC(=O)c1ccc(Oc2ccccc2)cc1`, the cell number change amounted to 16.1%. Also, the AC50 under setting [2] is 3.26 µM [falling, partial curve, poor fit].
In the case of `COc1ccccc1NC(=O)Nc1nnc(-c2ccco2)s1`, the cell number change was -35.1%. In addition, the half-maximal activity concentration (AC50) under setting [1] is 29.1 µM [falling, single point]. Also, the AC50 under setting [2] is 23.1 µM [falling, single point].
`O=C(COC(=O)C1CCC1)Nc1ccc(OC(F)F)cc1`: the cell number change was -3.02%. Further, under setting [2], the AC50 was 0.013 µM [falling, full curve, poor fit].
